{"sequences": {"note": "Chains of the proteins cited; added tags and fusions are not shown. Lines headed by an entry give the natural chain unless they say otherwise; changes in a name come on top.", "UniProt P69720": "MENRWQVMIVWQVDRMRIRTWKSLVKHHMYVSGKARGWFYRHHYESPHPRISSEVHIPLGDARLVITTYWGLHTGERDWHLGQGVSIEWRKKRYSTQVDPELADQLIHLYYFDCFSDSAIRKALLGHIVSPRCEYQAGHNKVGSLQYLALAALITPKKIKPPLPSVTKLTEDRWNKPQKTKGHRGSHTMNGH", "UniProt P69721": "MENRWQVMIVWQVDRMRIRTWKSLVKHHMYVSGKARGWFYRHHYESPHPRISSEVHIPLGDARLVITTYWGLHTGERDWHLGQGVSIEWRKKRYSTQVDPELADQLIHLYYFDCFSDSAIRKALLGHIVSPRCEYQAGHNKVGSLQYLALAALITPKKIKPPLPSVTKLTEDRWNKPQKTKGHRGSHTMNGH", "UniProt P69722": "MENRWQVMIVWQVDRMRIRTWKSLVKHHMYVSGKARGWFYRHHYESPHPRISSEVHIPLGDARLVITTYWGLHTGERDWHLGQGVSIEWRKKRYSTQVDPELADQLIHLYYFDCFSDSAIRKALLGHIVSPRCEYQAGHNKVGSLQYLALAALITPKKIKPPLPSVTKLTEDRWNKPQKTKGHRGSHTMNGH", "UniProt P69723": "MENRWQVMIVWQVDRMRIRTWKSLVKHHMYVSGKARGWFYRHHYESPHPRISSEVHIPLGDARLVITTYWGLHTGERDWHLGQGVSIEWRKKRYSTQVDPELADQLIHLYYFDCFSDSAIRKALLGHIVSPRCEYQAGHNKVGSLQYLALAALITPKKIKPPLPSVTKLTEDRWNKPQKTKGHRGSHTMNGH", "UniProt Q9HC16": "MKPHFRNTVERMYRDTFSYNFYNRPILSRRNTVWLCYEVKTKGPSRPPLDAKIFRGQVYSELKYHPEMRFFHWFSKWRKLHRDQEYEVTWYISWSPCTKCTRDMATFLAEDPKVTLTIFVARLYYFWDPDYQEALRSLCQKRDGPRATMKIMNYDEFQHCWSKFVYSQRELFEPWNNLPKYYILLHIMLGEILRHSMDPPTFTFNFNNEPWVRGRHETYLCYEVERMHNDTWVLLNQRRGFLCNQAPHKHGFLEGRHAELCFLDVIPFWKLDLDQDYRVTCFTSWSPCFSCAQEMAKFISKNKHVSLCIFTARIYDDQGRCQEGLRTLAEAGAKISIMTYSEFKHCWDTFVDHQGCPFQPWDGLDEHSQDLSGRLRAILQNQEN"}, "source": "PubChem BioAssay AID1117319", "about": "(Southern Research Institute, 2015)", "note": "Out of some 260,000 compounds screened, about 1,500 (0.58%) were called active. The shares of active, inactive and inconclusive entries below differ from those in the screen.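 The calls were made as follows: active = inhibition above a set limit at one or more doses, reproduced on every date tested; inconclusive = results disagree between test dates, or hit never tested in dose response; inactive = the rest.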", "data": [{"biological_target": "Virion infectivity factor (Human immunodeficiency virus type 1 group M subtype B (isolate BH10)) + Virion infectivity factor (Human immunodeficiency virus type 1 group M subtype B (isolate BRU/LAI)) + Virion infectivity factor (Human immunodeficiency virus type 1 group M subtype B (isolate PCV12)) + Virion infectivity factor (Human immunodeficiency virus type 1 group M subtype B (isolate HXB2)) + DNA dC->dU-editing enzyme APOBEC-3G (Homo sapiens) (UniProt P69720+P69721+P69722+P69723+Q9HC16)", "assay": "inhibitors of Vif binding to APOBEC3G peptide, primary screen, biochemical, TR-FRET, GST-Vif 1-94, biotin-A3G peptide, dose response retest (AID 1117319);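 also: Vif residues 1-94 fused to GST binding biotinylated APOBEC3G peptide 110-148; 0% = full assay without inhibitor and 100% = GST in place of GST-Vif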", "details": "hits give high values", "values": [{"compound": "Cn1ccnc1Sc1cc(NCCCO)c([N+](=O)[O-])c2nonc12", "inhibition": "inconclusive: 49.5%"}, {"compound": "COC(=O)c1cc(NC(=O)c2cc(-c3ccccc3Cl)oc2C(F)(F)F)ccc1N1CCOCC1", "inhibition": "inconclusive: 53.2%"}, {"compound": "CCOc1ccc(NCc2cc3cc(OC)ccc3[nH]c2=O)cc1", "inhibition": "inconclusive: 52.3%"}, {"compound": "Cc1nc(N2CCN(Cc3ccc4c(c3)OCO4)CC2)nc2c1C(=O)CC(c1ccco1)C2", "note": "(stereo unspecified)", "inhibition": "inconclusive: 59.3%"}, {"compound": "Clc1ccc(OCc2nc3ccccc3[nH]2)cc1", "inhibition": "inconclusive: 34.5%"}, {"compound": "COc1ccc(C(=O)NCC2CCCO2)cc1OC", "note": "(stereo unspecified)", "inhibition": "inconclusive: 51.9%"}, {"compound": "O=C(CC1Sc2ncnn2C1=O)Nc1ccc(Cl)cc1", "note": "(stereo unspecified)", "inhibition": "inconclusive: 51.1%"}, {"compound": "C=CCn1c(SCC(=O)NCc2ccc3c(c2)OCO3)nc2scc(-c3ccccc3)c2c1=O", "inhibition": "inactive: -40.6%"}, {"compound": "Cc1ccc(NC(=O)CC2SC3=NCCN3C2=O)cc1", "note": "(stereo unspecified)", "inhibition": "inconclusive: 47.1%"}, {"compound": "CC(C)(C)c1ccc(S(=O)(=O)N(CCCN2CCOCC2)Cc2cccs2)cc1", "inhibition": "inconclusive: 39.5%"}, {"compound": "Cc1cc(NC(=O)C(C)Oc2ccc(Cl)cc2Cl)n(-c2ccccc2)n1", "note": "(stereo unspecified)", "inhibition": "inconclusive: 39.5%"}, {"compound": "CCn1c(-c2csc(-c3ccccc3)n2)n[nH]c1=S", "inhibition": "inconclusive: 33.4%"}, {"compound": "O=C(NCc1ccc2c(c1)OCO2)c1ccc2c(c1)OCCO2", "inhibition": "inconclusive: 55.1%"}, {"compound": "Cc1ccc(Cl)cc1NC(=O)C1CCCN(S(=O)(=O)c2c(C)noc2C)C1", "note": "(stereo unspecified)", "inhibition": "inconclusive: 55.6%"}, {"compound": "COc1ccccc1N1CCN(C(=O)C(OC(C)=O)c2ccccc2)CC1", "note": "(stereo unspecified)", "inhibition": "inconclusive: 37.1%"}, {"compound": "O=C(CNC(=O)C1CCCCC1)Nc1ccc(F)c(Cl)c1", "inhibition": "inconclusive: 34.2%"}, {"compound": "COc1cc(C2NC(=O)NC(C)=C2C(=O)OCC2CCCCC2)ccc1O", "note": "(stereo unspecified)", "inhibition": "inconclusive: 51.7%"}, {"compound": "CSc1nsc(SCC(=O)Nc2ccc(C(C)=O)cc2)n1", "inhibition": "inconclusive: 37.7%"}, {"compound": "Cc1ccc(S(=O)(=O)N(C)CC(=O)O/N=C(\\N)c2cccc([N+](=O)[O-])c2)cc1", "inhibition": "inconclusive: 46.5%"}, {"compound": "O=C(O)/C=C/C(=O)Nc1ccc(OC(F)(F)F)cc1", "inhibition": "inconclusive: 45.1%"}, {"compound": "CCOC(=O)c1cccc(NC(=O)Cn2c(CC(=O)N3CCCC3)nc3ccccc32)c1", "inhibition": "inconclusive: 38.2%"}, {"compound": "COc1ccc(C2CC(C(F)(F)F)n3nc(C(=O)O)c(Cl)c3N2)cc1OC", "note": "(stereo unspecified)", "inhibition": "inconclusive: 38.4%"}, {"compound": "O=C(NN1C(=O)CSC1=S)C(=O)NN1C(=O)CSC1=S", "inhibition": "inconclusive: 56.7%"}, {"compound": "O=C(Nc1ccc(Nc2ccccc2)cc1)N1CCOCC1", "inhibition": "inconclusive: 34.5%"}, {"compound": "O=C(CC1(C(F)(F)F)OCCO1)Nc1ccc2c(c1)OCO2", "inhibition": "inconclusive: 48%"}, {"compound": "COC(=O)C1C2C=CC3(CN(Cc4cccs4)C(=O)C13)O2", "note": "(stereo unspecified)", "inhibition": "inconclusive: 36.6%"}, {"compound": "CN1C(=O)CSc2ccc(NC(=O)NCc3ccc(F)cc3)cc21", "inhibition": "inconclusive: 44.1%"}, {"compound": "CC(C)N(Cc1ccccc1)CC(O)COc1ccc(S(=O)(=O)N2CCOCC2)cc1Cl", "note": "(stereo unspecified)", "inhibition": "inconclusive: 48.5%"}, {"compound": "Cc1nc2cc(Cl)c(Cl)cc2nc1C", "inhibition": "inconclusive: 33.8%"}, {"compound": "CC(=O)N1CCN(C(=O)CCC(=O)O)CC1", "inhibition": "inactive: -4.74%"}, {"compound": "O=c1cc(-c2ccccc2)nc2cc(-c3ccco3)[nH]n12", "inhibition": "inconclusive: 40.9%"}, {"compound": "Oc1c(Cl)cc(Cl)cc1C1=NNC(c2ccc(Cl)cc2)C1", "note": "(stereo unspecified)", "inhibition": "inconclusive: 50.8%"}, {"compound": "O=C(COC(=O)C1CC2CCCC(C1)C2=O)NNC(=O)c1ccccc1Br", "note": "(stereo unspecified)", "inhibition": "inactive: -2.58%"}, {"compound": "Cc1ccc(NC(=O)C[n+]2cc(-c3ccccc3)n3c2CCC3)cc1", "inhibition": "inconclusive: 35.9%"}, {"compound": "Fc1ccccc1COc1ccc(/C=N/n2cnnc2)cc1", "inhibition": "inconclusive: 49.8%"}, {"compound": "Cc1ccsc1S(=O)(=O)N1CCCC(CCC(=O)NCc2ccccc2F)C1", "note": "(stereo unspecified)", "inhibition": "inconclusive: 36.3%"}, {"compound": "NC(=O)c1ccc(NC(=O)COC(=O)CCCN2C(=O)c3cccc4cccc(c34)C2=O)cc1", "inhibition": "inconclusive: 33.5%"}, {"compound": "CC1CCc2c(sc(NC(=O)c3ccc(Cn4cc([N+](=O)[O-])cn4)o3)c2C#N)C1", "note": "(stereo unspecified)", "inhibition": "inconclusive: 46.6%"}, {"compound": "COc1cccc(C(=O)Nc2c(C)n[nH]c2C)c1", "inhibition": "inconclusive: 40%"}, {"compound": "COc1cccc(CNC(=O)C2CCN(c3cnccn3)CC2)c1", "inhibition": "inconclusive: 46.7%"}, {"compound": "CC(=O)Nc1ccc(OCCOc2ccc([N+](=O)[O-])cc2)cc1", "inhibition": "inconclusive: 47.1%"}, {"compound": "CCCC(=O)NC(c1ccco1)c1cc([N+](=O)[O-])c2cccnc2c1O", "note": "(stereo unspecified)", "inhibition": "inconclusive: 51.7%"}, {"compound": "COc1ccc(-c2nnc(SCC(=O)N3CCc4ccccc4C3)o2)cc1", "inhibition": "inconclusive: 35.9%"}, {"compound": "COc1cccc2nc3cc(C)c(C)cc3nc12", "inhibition": "inconclusive: 38.3%"}, {"compound": "COC(=O)N1CCN(c2ccc(C(C)=O)cc2)CC1", "inhibition": "inactive: 5.12%"}, {"compound": "CCCCSc1nc(C)cc(C)c1S(=O)(=O)c1ccccc1C", "inhibition": "inconclusive: 43.8%"}, {"compound": "CCOc1ccccc1C(=O)Nc1cc(OC)ccc1OC", "inhibition": "inconclusive: 49.6%"}, {"compound": "COc1ccc(-c2ccc(-c3nnn(CC(=O)N4CCOCC4)n3)cc2)cc1", "inhibition": "inconclusive: 34%"}, {"compound": "COC(=O)Cc1c(C)nc2nc(NCc3ccc(Cl)cc3)[nH]n2c1=O", "inhibition": "inconclusive: 43.1%"}, {"compound": "COc1ccc(S(=O)(=O)N(Cc2ccccc2)Cc2nc(-c3ccccc3)no2)cc1", "inhibition": "inconclusive: 40.5%"}, {"compound": "CN(C)S(=O)(=O)c1cc(NC(=O)COC(=O)Cc2ccc(Br)cc2)ccc1Cl", "inhibition": "inconclusive: 51%"}, {"compound": "N#Cc1c(/N=C/c2ccco2)sc2c1CCC2", "inhibition": "inconclusive: 45.6%"}, {"compound": "N#CCCN/N=C(/Cc1nc2ccccc2[nH]1)c1cccc(Cl)c1", "inhibition": "inconclusive: 35%"}, {"compound": "O=C(O)c1cccc(S(=O)(=O)Nc2ccc(O)c(Sc3nc4ccccc4s3)c2)c1", "inhibition": "inconclusive: 58.2%"}, {"compound": "COc1ccccc1-c1ccc(=O)n(CC(=O)NCc2ccc3c(c2)OCO3)n1", "inhibition": "inconclusive: 45.5%"}, {"compound": "Cc1ccc(-c2cc(C(=O)NCc3ccco3)c3ccccc3n2)o1", "inhibition": "inconclusive: 55.1%"}, {"compound": "COc1cc(/C=C/C(=O)O)cc(S(=O)(=O)Nc2ccc3[nH]c(=O)[nH]c3c2)c1OC", "inhibition": "inconclusive: 56.7%"}, {"compound": "CSCC[C@H](NC(=O)Nc1ccc(C)cc1)C(=O)O", "inhibition": "inconclusive: 37.9%"}, {"compound": "COc1ccc(N(CC(=O)NCCSCc2ccco2)S(=O)(=O)c2ccc(C)cc2)cc1", "inhibition": "inactive: -1.79%"}, {"compound": "CC(C)Cc1ccc(CN2CCCC(NC(=O)Cn3cnnn3)C2)cc1", "note": "(stereo unspecified)", "inhibition": "inconclusive: 36.6%"}, {"compound": "CC1S/C(=C(\\C#N)C(=O)NCc2ccco2)N(Cc2ccco2)C1=O", "note": "(stereo unspecified)", "inhibition": "inconclusive: 31.7%"}, {"compound": "COC(=O)COC(=O)c1ccc(Oc2nc(OC)nc(N(C)C)n2)cc1", "inhibition": "inconclusive: 46%"}, {"compound": "Cc1ccsc1/C=c1\\sc2ncnn2c1=O", "inhibition": "inconclusive: 33.3%"}, {"compound": "CC(C)c1onc(C(=O)NCc2ccccn2)c1[N+](=O)[O-]", "inhibition": "inconclusive: 53.9%"}, {"compound": "CN(C)S(=O)(=O)c1ccc(C(=O)Nc2nnc(-c3cccs3)o2)cc1", "inhibition": "inactive: 27.3%"}, {"compound": "COc1ccc(C(C)NC(=O)c2cccc([N+](=O)[O-])c2)cc1OC", "note": "(stereo unspecified)", "inhibition": "inconclusive: 35%"}, {"compound": "c1nnn(C23CC4CC(CC(C4)C2)C3)n1", "inhibition": "inconclusive: 35%"}, {"compound": "Cn1cnnc1SCC(=O)Nc1sc2c(c1C#N)CCCCC2", "inhibition": "inconclusive: 48%"}, {"compound": "O=C(NCc1ccccc1)c1ccc(OCC2CCCO2)cc1", "note": "(stereo unspecified)", "inhibition": "inconclusive: 47.7%"}, {"compound": "CN(Cc1ccccc1)C(=O)COC(=O)c1ccc(Cl)c(N)c1", "inhibition": "inconclusive: 38.5%"}, {"compound": "C=C(C)Cn1c(CCCNC(=O)C(C)(C)C)nc2ccccc21", "inhibition": "inconclusive: 50.3%"}, {"compound": "O=C(Cn1c2ccc(F)cc2c2nc3n(c(=O)c21)CCS3)Nc1ccccc1C(F)(F)F", "inhibition": "inconclusive: 62.4%"}, {"compound": "C=CCn1c(COc2ccccc2C)nnc1SCC(=O)O", "inhibition": "inconclusive: 33%"}, {"compound": "O=C(c1cc(-c2ccccc2)nn1-c1ccccc1)N1CCN(S(=O)(=O)c2ccc(F)cc2)CC1", "inhibition": "inactive: -4.9%"}, {"compound": "O=[N+]([O-])c1cccc(C(O)C23CN4CN(CN(C4)C2)C3)c1", "note": "(stereo unspecified)", "inhibition": "inconclusive: 37.9%"}, {"compound": "Cc1nc(Nc2ccc(Cl)c(Cl)c2)sc1C(/C=C/c1ccc2c(c1)OCO2)=NNc1ccc([N+](=O)[O-])cc1[N+](=O)[O-]", "inhibition": "inactive: 0.47%"}, {"compound": "C1=C(c2ccc(-c3ccccc3)cc2)Nc2ncnn2C1c1ccco1", "note": "(stereo unspecified)", "inhibition": "inconclusive: 36.6%"}, {"compound": "Nc1cc2nc3ccccc3oc-2cc1=O", "inhibition": "inconclusive: 48%"}, {"compound": "COc1ccc(C(=O)Nc2nnc(-c3ccco3)s2)cc1", "inhibition": "inactive: -3.84%"}, {"compound": "O/N=C/c1ccc2ccccc2c1", "inhibition": "inconclusive: 46.5%"}, {"compound": "O=C(NNS(=O)(=O)c1ccc(F)cc1)C1CC(c2cccnc2)=NO1", "note": "(stereo unspecified)", "inhibition": "inconclusive: 39.8%"}, {"compound": "CCCc1cc(Nc2c(C)n(C)n(-c3ccccc3)c2=O)n2c(nc3ccccc32)c1C#N", "inhibition": "inconclusive: 42.2%"}, {"compound": "Fc1cccc(F)c1-n1c(CN2CCOCC2)csc1=S", "inhibition": "inactive: -4.65%"}, {"compound": "O=C(O)COc1ccc(-c2nccc(-c3cccs3)n2)cc1", "inhibition": "inconclusive: 44%"}, {"compound": "NC(N)=NS(=O)(=O)c1ccc(N)cc1", "inhibition": "inconclusive: 50.1%"}, {"compound": "COc1ccc(NC(=S)NCCc2c[nH]c3ccccc23)c(OC)c1", "inhibition": "inactive: 20.9%"}, {"compound": "COC(=O)CSc1nc(-c2ccc(C)cc2)c2c(c1C#N)CCCC2", "inhibition": "inconclusive: 40.1%"}, {"compound": "Cc1cccc(OC(=O)n2c(=S)oc3cc(Cl)ccc32)c1", "inhibition": "inconclusive: 42.3%"}, {"compound": "CCN(C(=O)c1ccc(C)c(Br)c1)c1ccccc1", "inhibition": "inconclusive: 59.9%"}, {"compound": "O=[N+]([O-])c1cc(F)c(N2CCCCC2)cc1N1CCOCC1", "inhibition": "inactive: 8.86%"}, {"compound": "CC(C)CC(=O)Nc1cccc(-c2cn3ccsc3n2)c1", "inhibition": "inconclusive: 42.4%"}]}]}
